Several values for one entry are separate records, joined by “and”; a condition that tells them apart may be missing. Identical values can stand only once. Out of some 400,000 compounds screened, about 13,000 (3.2%) were called active. The inconclusive results got no clear call from the source; some entries with a clear call stand among them for comparison. The call rests on the fitted dose curve; in most records, active means well fitted cell-killing curve with a large enough effect; inconclusive means small, poorly fitted or top-dose-only effect, or effect the other way; inactive means flat fitted curve, though single readings scatter. Where the call is inconclusive, the potency comes from a doubtful curve fit.
Experiment: qHTS assay for MDR1-selective chemotherapeutics: Primary screen using the drug-selected MDR subline cells KB-V1; further: nearly all actives have a fitted effect of over 60% in size
Details: KB-V1 MDR cells viability, CellTiter-Glo, 72 h; series mostly up to 46.1 µM
Method in brief: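 Compound-treated KB-V1 multidrug-resistant cells, 72 h, 37 degrees C; viability by CellTiter-Glo. Fitted qHTS curves give the values.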
Potency means the concentration at half of the fitted maximal effect.

Row | SMILES | Potency
1 | Cc1ccc(NC(=O)C2CCN(S(=O)(=O)c3ccc4c(c3)OCCCO4)CC2)nc1 | inconclusive: 11.6 µM [cytotoxic, partial curve]
2 | N#C/C(=C\c1ccc(OCc2ccccc2)cc1)C(N)=O | inactive
3 | CC(C)[C@H](NC(=O)C1CCN(S(=O)(=O)c2ccc(F)cc2)CC1)C(=O)NCc1ccncc1 | inconclusive: 16.4 µM [rising, single point]
4 | COC(=O)CSc1nc(-c2ccc(F)cc2)cc(C(F)(F)F)n1 | inconclusive: 1.64 µM [rising, single point]
5 | O=C(C[n+]1cc(-c2ccccc2)n2c1CCCCC2)c1ccc(Cl)cc1 | inactive
6 | O=C(NCCC1=CCCCC1)c1c(O)nc2ccccn2c1=O | inconclusive: 20.6 µM [cytotoxic, single point]
7 | COc1ccc(NC(=O)Cn2c(=O)n(Cc3nc(C)no3)c(=O)c3cc4c(cc32)OCO4)cc1OC | inconclusive: 23.1 µM [rising, single point]
8 | COC(=O)c1[nH]c2ccccc2c1NC(=O)CN1CCN(C/C=C/c2ccccc2)CC1 | inconclusive: 7.31 µM [cytotoxic, partial curve, poor fit]
9 | Cc1ccc(C(=O)NNC(=S)NC(=O)COc2ccccc2)cc1 | inactive
10 | O=C(OCCCN1CCCC1)C1(c2ccccc2)CCCC1 | inconclusive: 16.4 µM [cytotoxic, partial curve, poor fit]
11 | OC(c1ccccc1)c1nc(-c2ccc3c(c2)OCO3)cs1 (stereo not drawn) | inactive
12 | O=C(Cc1cn2ccsc2n1)Nc1ccccn1 | inactive
13 | COc1ccc(OC)c2sc(N(CCN(C)C)C(=O)/C=C/c3cccs3)nc12 | inconclusive: 20.6 µM [cytotoxic, single point]
14 | O=C(CSc1ncnc2sc3c(c12)CCCCC3)NCc1ccco1 | inconclusive: 18.4 µM [cytotoxic, single point] and inconclusive: 4.11 µM [cytotoxic, full curve, poor fit]
15 | C[C@H]1CCCCO[C@H](CN(C)S(=O)(=O)c2cn(C)cn2)[C@@H](C)CN([C@@H](C)CO)C(=O)c2cc(NS(=O)(=O)c3ccccc3)ccc2O1 | inconclusive: 2.06 µM [rising, partial curve, poor fit]
16 | COC(=O)c1cc(S(=O)(=O)NCCCN2CCCC2=O)cn1C | inactive
17 | Cc1ccc(S(=O)(=O)N(C)c2ccc(OCC(=O)NCC3(N(C)C)CCCCC3)cc2)cc1 | inconclusive: 11.6 µM [cytotoxic, single point]
18 | Cc1cc(C(=O)N/N=C/c2ccc(-c3cccc(Cl)c3)o2)n[nH]1 | inactive
